{"source": "PubChem BioAssay AID485314", "about": "(National Center for Advancing Translational Sciences (NCATS), 2010)", "note": "About 4,500 (1.3%) of roughly 340,000 compounds were called active. The inconclusive results got no clear call from the source; some entries with a clear call stand among them for comparison. Calls follow the shape of the dose curve; as a rule, active = well fitted inhibition curve with a large enough effect; inconclusive = small, poorly fitted or top-dose-only effect, or another doubt; inactive = no such curve, though single readings can be large or run the other way. Potencies of inconclusive entries are doubtful fits and often do not repeat. % is scaled to controls: 0 for no effect and ±100 for the full control effect; potency is read from the fitted curve at half-maximal effect."}
{"molecular_target": "DNA polymerase beta (Homo sapiens) (UniProt P06746)", "assay": "qHTS Assay for Inhibitors of DNA Polymerase Beta", "conditions": "Pol beta primer extension/strand displacement, fluorescence kinetic; activity change, negative = inhibition: at 114 µM (top of the series)", "procedure,_shortened": "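Enzyme-only controls used 10 nM Pol beta; buffer lacking enzyme served as negative control. Compound preincubated 15 min, then 50 nM substrate added; 0 and 10 min reads at room temperature.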"}
{"smiles": "COC(CNC(=O)c1cccnc1)OC", "activity change, negative = inhibition": "inactive: 34.4%"}
{"smiles": "COc1ccc(NC(=O)c2c(-c3ccc(C)cc3)nnc3ccccc23)c(OC)c1", "activity change, negative = inhibition": "inactive: -3.38%"}
{"smiles": "CCSC1=NC2(CCN(C(=O)NC3CCCCC3)CC2)N=C1c1ccc(Cl)cc1", "activity change, negative = inhibition": "inactive: -0.289%"}
{"smiles": "O=[N+]([O-])c1cccc2c(S(=O)(=O)N3CCOCC3)cccc12", "Potency": "inconclusive: 100 µM [inhibitor, single point]"}
{"smiles": "O=C(O)c1ccc(NCc2cccnc2)c([N+](=O)[O-])c1", "activity change, negative = inhibition": "inactive: 53.6%"}
{"smiles": "CN(C)S(=O)(=O)c1cccc(NC(=O)c2cc3c(=O)n4ccccc4nc3s2)c1", "activity change, negative = inhibition": "inactive: 11.5%"}
{"smiles": "Cc1cccc(C)c1NC(=S)N(CCc1ccncc1)C(C)C", "Potency": "inconclusive: 89.1 µM [inhibitor, single point]"}
{"smiles": "COc1cccc2sc3ccc(NCc4ccc5c(c4)OCO5)cc3c(=O)c12", "Potency": "inconclusive: 56.2 µM [inhibitor, partial curve]"}
{"smiles": "CCN(CC)c1ccc2cc(C(N)=O)/c(=N\\NC(=O)c3ccncc3)oc2c1", "Potency": "inconclusive: 39.8 µM [inhibitor, partial curve, poor fit]"}
{"smiles": "N#CCNC(=O)c1nn2c(C(F)(F)F)cc(-c3ccccc3)nc2c1Br", "activity change, negative = inhibition": "inactive: 14.6%"}
{"smiles": "CCNS(=O)(=O)c1ccc(CCC(=O)N2CCN(c3ccccc3)CC2)cc1", "Potency": "inconclusive: 20 µM [inhibitor, full curve, poor fit]"}
{"smiles": "COc1ccc(-c2csc(Cc3nc(O)cs3)n2)cc1", "Potency": "inconclusive: 70.8 µM [inhibitor, single point]"}
{"smiles": "COc1cc(/C=N/NC(=O)COc2ccc(-n3cnnn3)cc2)ccc1OCC(N)=O", "Potency": "active: 15.8 µM"}
{"smiles": "CCN1CCN(CCCNC(=O)c2cc3c(s2)-c2ccccc2OC3)CC1", "activity change, negative = inhibition": "inconclusive: -42.3% [inhibitor]"}
{"smiles": "Cc1ccsc1C(=O)C1CCCN(Cc2cn(C)nc2-c2ccccc2)C1", "note": "(configuration not stated)", "Potency": "inconclusive: 89.1 µM [inhibitor, single point]"}
{"smiles": "COc1ccc(-c2nnc(SCc3cc(=O)c4cc(C)cc(C)c4[nH]3)n2C)cc1", "Potency": "inconclusive: 39.8 µM [inhibitor, single point]"}
{"smiles": "COc1cccc(CN2C(=O)c3ccccc3Sc3ccc(C(=O)N(C)Cc4ccccc4)cc32)c1", "Potency": "inconclusive: 0.158 µM [inhibitor, full curve, poor fit]"}
{"smiles": "O=C(NCc1ccco1)C12CC3CC(CC(C3)C1)C2", "Potency": "inconclusive: 100 µM [inhibitor, single point]"}
{"smiles": "Cc1ccc(CN2C(=O)/C(=C\\c3ccc(C(=O)NCc4cccnc4)cc3)Oc3ccccc32)cc1", "Potency": "inconclusive: 39.8 µM [inhibitor, single point]"}
{"smiles": "Cc1cccc(-c2noc(-c3ccccc3NC(=O)C3CC(=O)N(c4ccccc4C)C3)n2)c1", "note": "(configuration not stated)", "activity change, negative = inhibition": "inactive: 5.61%"}
{"smiles": "COc1ccc(NS(=O)(=O)c2ccc(NC(=S)NC(=O)/C=C/c3ccccc3)cc2)nn1", "activity change, negative = inhibition": "inactive: 11.5%"}
{"smiles": "Cc1cccc(C2C3=C(Nc4[nH]n(-c5ccccc5)c(=O)c42)c2ccccc2C3=O)c1", "note": "(configuration not stated)", "Potency": "inconclusive: 28.2 µM [inhibitor, full curve, poor fit]"}
{"smiles": "COc1ccc(N2CCN(c3ncnc4c3[nH]c3ccccc34)CC2)cc1", "Potency": "inconclusive: 28.2 µM [inhibitor, single point]"}
{"smiles": "CN1C(=CC=C2C=C(I)C(=O)C(I)=C2)C(C)(C)c2ccccc21", "Potency": "inconclusive: 0.708 µM [inhibitor, full curve, poor fit]"}
{"smiles": "COc1ccc(/C=C(\\NC(=O)c2cccs2)C(=O)NC(C)(C)C)cc1OC", "Potency": "inconclusive: 39.8 µM [inhibitor, single point]"}
{"smiles": "CCCn1nc(NC(=O)CC(C)C)c2cc3ccccc3nc21", "Potency": "inconclusive: 0.282 µM [inhibitor, full curve, poor fit]"}
{"smiles": "Cc1ccc(NC(=O)CN2C(=O)S/C(=C\\c3cccn3-c3cccc(C(=O)O)c3)C2=O)c(C)c1", "Potency": "active: 10 µM"}
{"smiles": "COc1cccc(CC(=O)OCC(=O)NC2CCCCCC2)c1", "Potency": "inconclusive: 100 µM [inhibitor, single point]"}
{"smiles": "O=C(Nc1ccccc1Cl)c1cccc(NC(=O)C2CCCC2)c1", "Potency": "inconclusive: 89.1 µM [inhibitor, single point]"}
{"smiles": "O=C(O)c1ccc(/C=N/NC(=O)c2cc3c(ccc4ccccc43)o2)cc1", "Potency": "active: 39.8 µM"}
{"smiles": "COc1cccc(NC(=O)CCC(=O)Nc2ccc3nc(N4CCOCC4)cc(C)c3c2)c1", "Potency": "inconclusive: 50.1 µM [inhibitor, partial curve]"}
{"smiles": "O=c1oc2ccccc2cc1-c1nnc(NCc2ccco2)s1", "Potency": "inconclusive: 22.4 µM [inhibitor, full curve]"}
{"smiles": "CCOC(=O)C(C)n1cnc2c(nnn2Cc2ccc(Cl)cc2)c1=O", "note": "(configuration not stated)", "Potency": "inconclusive: 89.1 µM [inhibitor, single point]"}
{"smiles": "COc1ccc(C(=O)Oc2ccc3oc(=O)sc3c2)cc1", "Potency": "inconclusive: 89.1 µM [inhibitor, single point]"}
{"smiles": "Cc1ccc(S(=O)(=O)N2CC=C(c3c(C)n(CC(=O)N4CCCC4)c4ccccc34)CC2)cc1C", "activity change, negative = inhibition": "inactive: -1.91%"}
{"smiles": "Cn1c(=O)[nH]c(=O)c2c1nc(SCCN1CCOCC1)n2Cc1ccccc1", "Potency": "inconclusive: 11.2 µM [inhibitor, partial curve, poor fit]"}
{"smiles": "COc1cc(C(=O)NCC(c2ccco2)S(=O)(=O)c2cccs2)cc(OC)c1OC", "note": "(configuration not stated)", "activity change, negative = inhibition": "inactive: 2.11%"}
{"smiles": "CCN(CC)C(=O)CC(c1ccc(OC)cc1)c1c(O)cc(OC)cc1OC", "note": "(configuration not stated)", "Potency": "inconclusive: 35.5 µM [inhibitor, single point]"}
{"smiles": "CCNc1ccc(Br)cc(C(=O)/C=C/c2ccc(Cl)cc2)c1=O", "Potency": "active: 28.2 µM"}
{"smiles": "C=CCOC(=O)c1[nH]c2c(c1C)C(=O)CC(c1ccco1)C2", "note": "(configuration not stated)", "Potency": "active: 12.6 µM"}
{"smiles": "COc1ccc(-c2cc(C(=O)Nc3cc(Br)ccc3O)no2)cc1", "Potency": "inconclusive: 39.8 µM [inhibitor, full curve, poor fit]"}
{"smiles": "CC1CCCCN1Cc1c(O)ccc2c(=O)c(-c3nc4ccccc4s3)c(N)oc12", "note": "(configuration not stated)", "Potency": "inconclusive: 35.5 µM [inhibitor, partial curve]"}
{"smiles": "COc1ccc(O)c(/C=N/N2CCCCC2)c1", "Potency": "inconclusive: 89.1 µM [inhibitor, single point]"}
{"smiles": "O=c1nc(Nc2ccc(Br)cc2)sc2ccc([N+](=O)[O-])cc12", "activity change, negative = inhibition": "inconclusive: -32.8% [inhibitor]"}
{"smiles": "Cc1cccc(N2CCN(S(=O)(=O)c3ccc(-c4cnc(C5CC5)o4)cc3)CC2)c1C", "Potency": "inconclusive: 79.4 µM [inhibitor, single point]"}
{"smiles": "COc1cc(/C=C2\\SC(N)=NC2=O)ccc1O", "Potency": "inconclusive: 44.7 µM [inhibitor, partial curve]"}
{"smiles": "O=C(CSc1nc(NS(=O)(=O)c2ccccc2)cc(=O)[nH]1)Nc1ccc(F)cc1", "Potency": "active: 25.1 µM"}
{"smiles": "COc1cc(/C=C/C(=O)CC(=O)/C=C/c2ccc(O)c(OC)c2)ccc1O", "Potency": "inconclusive: 44.7 µM [inhibitor, partial curve]"}
{"smiles": "COc1ccc(-c2[nH]c(-c3ccc(O)cc3)nc2-c2ccccc2)cc1", "activity change, negative = inhibition": "inactive: 6.39%"}
{"smiles": "O=c1c(Oc2ccccc2F)coc2cc(OCc3cnn(-c4ccccc4)c3)ccc12", "Potency": "inconclusive: 22.4 µM [inhibitor, full curve]"}
{"smiles": "O=C(NNC(=O)c1cc2ccccc2cc1O)Nc1ccccc1F", "Potency": "inconclusive: 35.5 µM [inhibitor, full curve]"}
{"smiles": "Cc1c(Cl)cccc1Nc1nn2c(=O)c3ccccc3nc2s1", "Potency": "inconclusive: 5.62 µM [inhibitor, full curve]"}
{"smiles": "O=C(Nc1ccc2oc(-c3cccnc3)nc2c1)c1ccc([N+](=O)[O-])o1", "Potency": "inconclusive: 79.4 µM [inhibitor, partial curve, poor fit]"}
{"smiles": "CCOC(=O)c1cc2c(=O)n3ccccc3nc2n(Cc2ccco2)c1=NC(=O)c1ccccc1Br", "Potency": "inconclusive: 10 µM [inhibitor, full curve]"}
{"smiles": "Cc1ccccc1NC(=O)c1cc(S(=O)(=O)c2ccccc2)ccc1Cl", "Potency": "inconclusive: 89.1 µM [inhibitor, single point]"}
{"smiles": "Nc1c(-c2nc(-c3ccncc3)no2)nnn1CC(=O)Nc1ccccc1", "Potency": "inconclusive: 89.1 µM [inhibitor, single point]"}
{"smiles": "COc1cc(NS(=O)(=O)c2cc(C(=O)N3CCN(C(C)=O)CC3)ccc2OC)cc(OC)c1", "Potency": "inconclusive: 79.4 µM [inhibitor, single point]"}
{"smiles": "Oc1ccc(/C=N/Nc2ccc(Cl)nn2)cc1O", "Potency": "inconclusive: 89.1 µM [inhibitor, single point]"}
{"smiles": "COc1cccc(CNS(=O)(=O)c2cc3c(cc2C)n(C)c(=O)c(=O)n3C)c1", "Potency": "inconclusive: 100 µM [inhibitor, single point]"}
{"smiles": "COc1cccc(-n2nc(C(=O)N3CCN(Cc4ccccc4)CC3)c3ccccc3c2=O)c1", "Potency": "inconclusive: 89.1 µM [inhibitor, single point]"}
{"smiles": "CC1C(=O)Nc2ccc(S(=O)(=O)NCc3ccc(Cl)cc3)cc2NC1=O", "note": "(configuration not stated)", "Potency": "inconclusive: 0.141 µM [inhibitor, full curve, poor fit]"}
{"smiles": "COc1cccc(C(=O)Nc2ccc3c(c2)C(=O)c2ccccc2C3=O)c1", "Potency": "active: 10 µM"}
{"smiles": "COC(=O)C1=C(SC)N(c2ccccc2)C(c2ccccc2)CC1=O", "note": "(configuration not stated)", "activity change, negative = inhibition": "inactive: 0.335%"}
{"smiles": "O=C(O)c1ccccc1-n1cccc1C(=O)O", "Potency": "active: 25.1 µM"}
{"smiles": "O=C(/C=C/c1ccc(F)cc1)NC(=S)Nc1ccccc1", "Potency": "inconclusive: 89.1 µM [inhibitor, single point]"}
{"smiles": "Cn1c(SCC(=O)Nc2ccc3nc(SCC(=O)NC4CC4)sc3c2)nnc1-c1ccccc1", "activity change, negative = inhibition": "inactive: -0.563%"}
{"smiles": "COc1ccc([N+](=O)[O-])cc1NC(=O)Nc1ccccc1", "Potency": "inconclusive: 1 µM [inhibitor, partial curve, poor fit]"}
